Measured values: patent US20160349221A1, “METHODS FOR MASS SPECTROMETRIC QUANTITATION OF ANALYTES EXTRACTED FROM A MICROSAMPLING DEVICE” (QUEST DIAGNOSTICS INVESTMENTS LLC, priority 2015, published 2016)
“And” between values parts separate entries of the source, which are not always exact repeats. Equal entries are not always repeated. Where two headings read alike, the source gives them in different places.

Experiments:
[1] = LC-MS/MS assay of benzodiazepines from whole blood calibrators on 10 uL and 20 uL MITRA tips: LOQ and linear range
[2] = Mass spectrometric assay of steroids from 20 uL MITRA tips: analytical sensitivity (LOQ) and linear range; settings: for Linear Range: 20 uL MITRA tip, preliminary analytical measurable range; for LOQ: preliminary LOQ, lowest reproducible concentration with CV ≦20%
[3] = Anti-epileptic drugs LC-MS/MS from whole blood on 20 uL MITRA tips: within run precision
[4] = linear range, whole blood calibrators; for 10 uL Tip Range: 10 uL MITRA tip; for 15 uL Tip range: 15 uL MITRA tip
[5] = 20 uL tips, whole blood calibrators
[6] = linear range, whole blood calibrators, 10 uL MITRA tip
[7] = linear range, whole blood calibrators, 20 uL MITRA tip

| Compound | LOQ on Mitra Tip [1, 5] [ng/mL] | 10 uL Tip Range [1, 6] | 20 uL Tip Range [1, 7] | Linear Range [2] | LOQ [2] [ng/dL] | other results |
| --- | --- | --- | --- | --- | --- | --- |
| Cc1nnc2n1-c1ccc(Cl)cc1C(c1ccccc1)=NC2 [Alprazolam] | 5 | 10 to 1000 ng/mL | 5 to 1000 ng/mL |  |  |  |
| Cc1nnc2n1-c1ccc(Cl)cc1C(c1ccccc1Cl)=NC2 [Triazolam] | 1 | 2.5-1000^ ng/mL | 1 to 1000 ng/mL |  |  |  |
| CC(=O)[C@@]1(O)CC[C@H]2[C@@H]3CCC4=CC(=O)CC[C@]4(C)[C@H]3[C@@H](O)C[C@@]21C [21-Deoxycortisol] |  |  |  | 100-10,000 ng/dL | 75 |  |
| C[C@]12CCC(=O)C=C1CC[C@@H]1[C@@H]2C(=O)C[C@@]2(C)[C@H]1CC[C@]2(O)C(=O)CO [Cortisone] |  |  |  | 0.5 to 10 µg/dL | 200 |  |
| Cc1ccsc1C(=CCCN1CCC[C@@H](C(=O)O)C1)c1sccc1C [Tiagabine] |  |  |  |  |  | MEAN of 10 runs ([3]; High QC […]): 0.14 µg/mL; % Accuracy ([3]; Low QC 0.03 ug/mL): 0.43%; MEAN of 10 runs ([3]; Low QC 0.03 ug/mL): 0.03 µg/mL; Run 1-10 measured concentration ([3]; Low QC 0.03 ug/mL): 0.03 µg/mL and 0.04 µg/mL; % Accuracy ([3]; Medium QC 0.06 ug/mL): 0.44%; MEAN of 10 runs ([3]; Medium QC 0.06 ug/mL): 0.07 µg/mL; Run 1-10 measured concentration ([3]; Medium QC 0.06 ug/mL): 0.07 µg/mL and 0.06 µg/mL and 0.08 µg/mL |
| CC(=O)[C@]1(O)C=C[C@H]2[C@H]3Cc4ccc(O)c5c4[C@@]2(CCN3C)[C@H]1O5 [6MAM, 6-monoacetylmorphine] |  |  |  |  |  | 10 uL Tip Range [4]: 10 to 1000 ng/mL; 15 uL Tip range [4]: 10 to 1000 ng/mL |
| O=C1Nc2ccc(Cl)cc2C(c2ccccc2Cl)=NC1O (centres unmarked) [Lorazepam] | 1 | 2.5-1000^ ng/mL | 1 to 1000 ng/mL |  |  |  |
| CC(=O)[C@@]1(O)CC[C@H]2[C@@H]3CCC4=CC(=O)CC[C@]4(C)[C@H]3CC[C@@]21C [17-Hydroxyprogesterone] |  |  |  | 50-10,000 ng/dL | 40 |  |
| C[C@]12CCC(=O)C=C1CC[C@@H]1[C@@H]2[C@@H](O)C[C@@]2(C)[C@H]1CC[C@]2(O)C(=O)CO [Cortisol] |  |  |  | 1-50^ ug/dL | 250 |  |
| O=C1CN=C(c2ccccc2Cl)c2cc(Br)ccc2N1 [Phenazepam] | 5 | 10 to 1000 ng/mL | 5 to 1000 ng/mL |  |  |  |
| O=C1CN=C(c2ccccc2Cl)c2cc([N+](=O)[O-])ccc2N1 [Clonazepam] | 2.5 | 5 to 1000 ng/mL | 2.5-1000^ ng/mL |  |  |  |
| CCN(CC)CCN1C(=O)CN=C(c2ccccc2F)c2cc(Cl)ccc21 [Flurazepam] | 0.5 | 1 to 1000 ng/mL | 0.5-1000^ ng/mL |  |  |  |
| CN1C(=O)CC(=O)N(c2ccccc2)c2cc(Cl)ccc21 [Clobazam] | 1 | 2.5-1000^ ng/mL | 1 to 1000 ng/mL |  |  |  |
| NC(=O)N1c2ccccc2C=Cc2ccccc21 [Carbamazepine] |  |  |  |  |  | % Accuracy ([3]; High QC 12 ug/mL): 113.49%; MEAN of 10 runs ([3]; High QC 12 ug/mL): 13.62 µg/mL; % Accuracy ([3]; Low QC 3 ug/mL): 111.97%; MEAN of 10 runs ([3]; Low QC 3 ug/mL): 3.36 µg/mL; % Accuracy ([3]; Medium QC 6 ug/mL): 118.37%; MEAN of 10 runs ([3]; Medium QC 6 ug/mL): 7.10 µg/mL |
| C[C@]12CC[C@H]3[C@@H](CCC4=CC(=O)CC[C@@]43C)[C@@H]1CC[C@@H]2C(=O)CO [11-Deoxycorticosterone] |  |  |  | 100-10,000 ng/dL | 50 |  |
| O=C1CN=C(c2ccccc2)c2cc(Cl)ccc2N1 [Nordiazepam] | 5 | 10 to 1000 ng/mL | 5 to 1000 ng/mL |  |  |  |
| O=C1CN=C(c2ccccn2)c2cc(Br)ccc2N1 [Bromazepam] | 5 | 10 to 1000 ng/mL | 5 to 1000 ng/mL |  |  |  |

| Compound | LOQ on Mitra Tip [1, 5] [ng/mL] | 10 uL Tip Range [1, 6] | 20 uL Tip Range [1, 7] | Linear Range [2] | LOQ [2] [ng/dL] | other results |
| --- | --- | --- | --- | --- | --- | --- |
| CN1CCN=C(c2ccccc2)c2cc(Cl)ccc21 [Medazepam] | 1 | 2.5-1000^ ng/mL | 1 to 1000 ng/mL |  |  |  |
| COc1ccc2c3c1O[C@H]1C(=O)CC[C@@]4(O)[C@@H](C2)N(C)CC[C@]314 [Oxycodone] |  |  |  |  |  | 10 uL Tip Range [4]: 10 to 1000 ng/mL; 15 uL Tip range [4]: 5 to 1000 ng/mL |
| CN1C(=O)CN=C(c2ccccc2F)c2cc([N+](=O)[O-])ccc21 [Flunitrazepam] |  |  |  |  |  | 10 uL Tip Range [1]: 1 to 1000 ng/mL; 20 uL Tip Range [1]: 0.5-1000^ ng/mL; LOQ on Mitra Tip [1]: 0.5 ng/mL |
| CN1C(=O)CN=C(c2ccccc2)c2cc(Cl)ccc21 [Diazepam] | 1 | 2.5-1000^ ng/mL | 1 to 1000 ng/mL |  |  |  |
| C[C@]12CCC(=O)C=C1CC[C@@H]1[C@@H]2CC[C@@]2(C)[C@H]1CC[C@]2(O)C(=O)CO [11-Deoxycortisol] |  |  |  | 100-10,000 ng/dL | 50 |  |
| NC(=O)N1c2ccccc2C2OC2c2ccccc21 (centres unmarked) [10,11 Carbamazepine Epoxide] |  |  |  |  |  | % Accuracy ([3]; High QC 15 ug/mL): 111.42%; MEAN of 10 runs ([3]; High QC 15 ug/mL): 16.71 µg/mL; % Accuracy ([3]; Low QC 3.75 ug/mL): 103.41%; MEAN of 10 runs ([3]; Low QC 3.75 ug/mL): 3.88 µg/mL; % Accuracy ([3]; Medium QC 7.5 ug/mL): 112.40%; MEAN of 10 runs ([3]; Medium QC 7.5 ug/mL): 8.43 µg/mL |
| O=C1CN=C(c2ccccc2)c2cc(Cl)ccc2N1CC1CC1 [Prazepam] | 0.5 | 1 to 1000 ng/mL | 0.5-1000^ ng/mL |  |  |  |
| CC(=O)[C@H]1CC[C@H]2[C@@H]3CCC4=CC(=O)CC[C@]4(C)[C@H]3CC[C@]12C [Progesterone] |  |  |  | 0.15 to 10 µg/dL | 100 |  |
| Cc1ncc2n1-c1ccc(Cl)cc1C(c1ccccc1F)=NC2 [Midazolam] | 10 | 25 to 1000 ng/mL | 10 to 1000 ng/mL |  |  |  |
| COc1ccc2c3c1O[C@H]1C(=O)CC[C@@]4(O)[C@@H](C2)NCC[C@]314 [Noroxycodone] |  |  |  |  |  | 10 uL Tip Range [4]: 10 to 1000 ng/mL; 15 uL Tip range [4]: 5 to 1000 ng/mL |
| CN1C(=O)C(O)N=C(c2ccccc2)c2cc(Cl)ccc21 (centres unmarked) [Temazepam] | 0.5 | 1 to 1000 ng/mL | 0.5-1000^ ng/mL |  |  |  |
| O=C1CN=C(c2ccccc2)c2cc([N+](=O)[O-])ccc2N1 [Nitrazepam] | 1 | 2.5-1000^ ng/mL | 1 to 1000 ng/mL |  |  |  |
| CN1CC[C@]23c4c5ccc(O)c4O[C@H]2C(=O)CC[C@@]3(O)[C@H]1C5 [Oxymorphone] |  |  |  |  |  | 10 uL Tip Range [4]: 5 to 1000 ng/mL; 15 uL Tip range [4]: 5 to 1000 ng/mL |
| C[C@]12C[C@H](O)[C@H]3[C@@H](CCC4=CC(=O)CC[C@@]43C)[C@@H]1CC[C@@H]2C(=O)CO [Corticosterone] |  |  |  | 200-10,000 ng/dL | 100 |  |
| C[C@]12CCC(=O)C=C1CC[C@@H]1[C@@H]2CC[C@]2(C)C(=O)CC[C@@H]12 [Androstenedione] |  |  |  | 50-10,000 ng/dL | 40 |  |
| C[C@]12CC[C@H]3[C@@H](CCC4=CC(=O)CC[C@@]43C)[C@@H]1CC[C@@H]2O [Testosterone] |  |  |  | 50-10,000 ng/dL | 40 |  |
